Assay results: publication PMC8843744
Results are given in words; binding and its absence hold for the method and conditions named. In cells and extracts the contact can be indirect. Here binding means that the protein was enriched with, or labelled near, the bait; the list need not be complete.

The chains behind the UniProt entries cited, without tags or fusion partners.
UniProt Q7Z4V5: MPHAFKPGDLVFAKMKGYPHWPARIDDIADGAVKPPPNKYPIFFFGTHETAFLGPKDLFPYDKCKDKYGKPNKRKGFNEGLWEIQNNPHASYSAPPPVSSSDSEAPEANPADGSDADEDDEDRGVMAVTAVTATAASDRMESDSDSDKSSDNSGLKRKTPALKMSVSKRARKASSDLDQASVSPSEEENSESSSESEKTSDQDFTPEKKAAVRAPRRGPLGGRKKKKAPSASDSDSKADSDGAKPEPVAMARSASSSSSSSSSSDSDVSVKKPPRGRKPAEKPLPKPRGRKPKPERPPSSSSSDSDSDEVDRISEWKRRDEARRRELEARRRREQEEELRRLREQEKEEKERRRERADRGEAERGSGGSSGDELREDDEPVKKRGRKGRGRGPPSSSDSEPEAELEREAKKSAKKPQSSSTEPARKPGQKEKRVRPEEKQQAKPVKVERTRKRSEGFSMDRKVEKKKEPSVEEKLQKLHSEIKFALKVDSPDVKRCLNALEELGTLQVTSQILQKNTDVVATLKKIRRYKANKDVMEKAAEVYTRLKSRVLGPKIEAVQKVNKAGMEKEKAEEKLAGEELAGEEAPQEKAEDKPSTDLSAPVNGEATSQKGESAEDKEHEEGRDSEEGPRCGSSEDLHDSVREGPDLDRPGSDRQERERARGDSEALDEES
UniProt Q8IUF8: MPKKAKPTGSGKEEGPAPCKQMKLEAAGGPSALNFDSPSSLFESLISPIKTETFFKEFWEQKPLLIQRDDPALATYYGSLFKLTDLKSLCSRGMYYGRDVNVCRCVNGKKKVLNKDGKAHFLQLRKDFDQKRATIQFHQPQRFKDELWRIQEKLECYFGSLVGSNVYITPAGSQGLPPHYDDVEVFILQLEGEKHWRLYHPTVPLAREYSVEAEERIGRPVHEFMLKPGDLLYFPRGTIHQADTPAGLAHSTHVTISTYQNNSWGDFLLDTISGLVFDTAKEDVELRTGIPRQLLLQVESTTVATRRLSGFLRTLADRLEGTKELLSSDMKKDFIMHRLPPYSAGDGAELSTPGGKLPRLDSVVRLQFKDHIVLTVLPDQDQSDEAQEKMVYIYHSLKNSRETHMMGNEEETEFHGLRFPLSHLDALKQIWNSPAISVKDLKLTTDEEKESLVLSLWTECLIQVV

Target: hepatoma-derived growth factor 2 (HRP2), Flag-tagged (UniProt Q7Z4V5)
Assay: affinity purification with mass spectrometry; extracts in NP-40 lysis buffer (150 mM sodium chloride, 1% NP-40, 50 mM Tris, pH 8.0) on anti-Flag M2 affinity gel at 4°C overnight; eluted with Flag peptide; silver-stained bands analysed by LC-MS/MS; empty vector as control

binding: binds
Substance: MYC-induced nuclear antigen (MINA), in the cells expressing Flag-HRP2 (from UniProt Q8IUF8 1-465)
